The values below come from the supplement of paper PMC4604168 (melanoma cell lines).

The list shows a part of the results. Single values are uncertain, as repeats are few or missing.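 Imaging used 1,536-well plates; nuclei positive for cleaved PARP by antibody were divided by total DNA-stained nuclei to yield the apoptosis fraction. Doses for screening kept most cells viable, and cell lines differ markedly in resting and induced cleaved-PARP levels.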

For the assay, the system named is MZ2-MEL. Description: cleaved PARP positive nuclei fraction relative to DMSO control; melanoma cells; higher = more apoptosis. Conditions: library dose: low library concentration; 72 h.
For the compound `NC1(c2ccc(-c3nc4ccn5c(=O)[nH]nc5c4cc3-c3ccccc3)cc2)CCC1` + Cc1nc(Nc2ncc(C(=O)Nc3c(C)cccc3Cl)s2)cc(N2CCN(CCO)CC2)n1 [dasatanib] (first compound 0.4 µM, partner dose 0.004 µM), the “cleaved PARP positive nuclei fraction” value worked out at 84.7%.
To `C[C@@H](N)c1ccc(C(=O)Nc2ccnc3[nH]ccc23)cc1` + CC(C)(C)c1cnc(CSc2cnc(NC(=O)C3CCNCC3)s2)o1 [SNS-032] (first compound 0.4 µM, partner dose 0.01 µM) belongs 387%; to `NC(=O)c1ccc(N(C(N)=O)c2c(F)cccc2F)nc1-c1ccc(F)cc1F` + CN1CCN(c2ccc3nc(-c4c(N)c5c(F)cccc5[nH]c4=O)[nH]c3c2)CC1 [Dovitinib] (first compound 0.4 µM, partner dose 0.1 µM), 107%.
For `NC(=O)c1ccc(N(C(N)=O)c2c(F)cccc2F)nc1-c1ccc(F)cc1F` + C[C@]1(O)C[C@@H](c2nc(-c3ccc4ccc(-c5ccccc5)nc4c3)c3c(N)nccn32)C1 [OSI906] (first compound 0.4 µM, partner dose 0.4 µM), the “cleaved PARP positive nuclei fraction” value was 274%.
Take `Cn1cnc2c(F)c(Nc3ccc(Br)cc3Cl)c(C(=O)NOCCO)cc21` [selumetinib] + Cn1nnc2c(C(N)=O)ncn2c1=O [temozolomide] (first compound 0.015 µM, partner dose 2 µM): the “cleaved PARP positive nuclei fraction” value came to 113%.
To `C[C@]1(O)C[C@@H](c2nc(-c3ccc4ccc(-c5ccccc5)nc4c3)c3c(N)nccn32)C1` + Clc1ccc(Nc2nnc(Cc3ccncc3)c3ccccc23)cc1 [vatalanib] (first compound 0.4 µM, partner dose 2 µM) belongs 134%.
To `CC1(C)CCC(c2ccc(Cl)cc2)=C(CN2CCN(c3ccc(C(=O)NS(=O)(=O)c4ccc(N[C@H](CCN5CCOCC5)CSc5ccccc5)c(S(=O)(=O)C(F)(F)F)c4)cc3)CC2)C1` + Cc1cc(N2CCOCC2)cc2[nH]c(-c3c(NC[C@@H](O)c4cccc(Cl)c4)cc[nH]c3=O)nc12 [BMS536924] (first compound 0.4 µM, partner dose 0.2 µM) belongs 186%.
For `CC(=O)O[C@@]12CO[C@@H]1C[C@H](O)[C@@]1(C)C(=O)[C@H](O)C3=C(C)[C@@H](OC(=O)[C@H](O)[C@@H](NC(=O)OC(C)(C)C)c4ccccc4)C[C@@](O)([C@@H](OC(=O)c4ccccc4)[C@H]21)C3(C)C` [Docetaxel] + COCC[n+]1c2c(n(Cc3cnccn3)c1C)C(=O)c1ccccc1C2=O [YM155] (first compound 0.0001 µM, partner dose 0.0004 µM), the “cleaved PARP positive nuclei fraction” value came to 748%.
To `NC1(c2ccc(-c3nc4ccn5c(=O)[nH]nc5c4cc3-c3ccccc3)cc2)CCC1` + CC(=O)c1c(C)c2cnc(Nc3ccc(N4CCNCC4)cn3)nc2n(C2CCCC2)c1=O [palbociclib] (first compound 0.4 µM, partner dose 0.04 µM) belongs 2340%; to `Cn1sc(=O)n(Cc2ccccc2)c1=O` + Cc1cc([N+](=O)[O-])ccc1NS(=O)(=O)c1cc(Cl)ccc1Cl [FH535] (first compound 0.4 µM, partner dose 1 µM), 120%; to `CN(c1ncccc1CNc1nc(Nc2ccc3c(c2)CC(=O)N3)ncc1C(F)(F)F)S(C)(=O)=O` + Nc1cccc2c1CN(C1CCC(=O)NC1=O)C2=O [lenalidomide] (first compound 0.08 µM, partner dose 1 µM), 113%.
As for `NC(=O)c1ccc(N(C(N)=O)c2c(F)cccc2F)nc1-c1ccc(F)cc1F` + C[C@]1(c2nc3c(C(N)=O)cccc3[nH]2)CCCN1 [Veliparib] (first compound 0.4 µM, partner dose 1.4 µM), the figure is 87.4%; as for `CCCCCCCCc1ccc(CCC(N)(CO)CO)cc1` [fingolimod] + O=C(O)c1ccc2c(c1)nc(Nc1cccc(Cl)c1)c1ccncc12 [CX4945] (first compound 2 µM, partner dose 0.4 µM), 71%.
On to `C[C@@H](N)c1ccc(C(=O)Nc2ccnc3[nH]ccc23)cc1` + Cc1cc(N2CCOCC2)cc2[nH]c(-c3c(NC[C@@H](O)c4cccc(Cl)c4)cc[nH]c3=O)nc12 [BMS536924] (first compound 0.4 µM, partner dose 0.2 µM), for which the “cleaved PARP positive nuclei fraction” value stood at 183%.
To `CCCCCCCCc1ccc(CCC(N)(CO)CO)cc1` [fingolimod] + C=CCn1c(=O)c2cnc(Nc3ccc(N4CCN(C)CC4)cc3)nc2n1-c1cccc(C(C)(C)O)n1 [MK1775] (first compound 2 µM, partner dose 0.02 µM) belongs 99.9%; to `CN(c1ncccc1CNc1nc(Nc2ccc3c(c2)CC(=O)N3)ncc1C(F)(F)F)S(C)(=O)=O` + Nc1nc(F)nc2c1ncn2[C@@H]1O[C@H](CO)[C@@H](O)[C@@H]1O [fludarabine] (first compound 0.08 µM, partner dose 0.2 µM), 108%.
As for `C[C@@H](N)c1ccc(C(=O)Nc2ccnc3[nH]ccc23)cc1` + CS(=O)(=O)CCNCc1ccc(-c2ccc3ncnc(Nc4ccc(OCc5cccc(F)c5)c(Cl)c4)c3c2)o1 [lapatinib] (first compound 0.4 µM, partner dose 0.8 µM), the figure is 172%.
To `NC(=O)c1ccc(N(C(N)=O)c2c(F)cccc2F)nc1-c1ccc(F)cc1F` + CS(=O)(=O)CCNCc1ccc(-c2ccc3ncnc(Nc4ccc(OCc5cccc(F)c5)c(Cl)c4)c3c2)o1 [lapatinib] (first compound 0.4 µM, partner dose 0.8 µM) belongs 170%; to `CS(=O)(=O)c1ccc(C(=O)Nc2ccc(Cl)c(-c3ccccn3)c2)c(Cl)c1` [vismodegib] + O=C(O)c1ccc2c(c1)nc(Nc1cccc(Cl)c1)c1ccncc12 [CX4945] (first compound 1 µM, partner dose 0.4 µM), 124%.
For `CC(=O)O[C@@]12CO[C@@H]1C[C@H](O)[C@@]1(C)C(=O)[C@H](O)C3=C(C)[C@@H](OC(=O)[C@H](O)[C@@H](NC(=O)OC(C)(C)C)c4ccccc4)C[C@@](O)([C@@H](OC(=O)c4ccccc4)[C@H]21)C3(C)C` [Docetaxel] + CCc1ccc(CCOc2ccc(CC3SC(=O)NC3=O)cc2)nc1 [pioglitazone] (first compound 0.0001 µM, partner dose 2 µM), the “cleaved PARP positive nuclei fraction” value amounted to 552%.
To `Cn1cnc2c(F)c(Nc3ccc(Br)cc3Cl)c(C(=O)NOCCO)cc21` [selumetinib] + Cn1c(Nc2ccc(C(F)(F)F)cc2)nc2cc(Oc3ccnc(-c4ncc(C(F)(F)F)[nH]4)c3)ccc21 [CHIR265] (first compound 0.015 µM, partner dose 0.08 µM) belongs 38.6%; to `NC1(c2ccc(-c3nc4ccn5c(=O)[nH]nc5c4cc3-c3ccccc3)cc2)CCC1` + c1cc(-c2cnn3cc(-c4ccc(OCCN5CCCCC5)cc4)cnc23)ccn1 [Dorsomorphin] (first compound 0.4 µM, partner dose 0.4 µM), 30.7%; to `CC(=O)O[C@@]12CO[C@@H]1C[C@H](O)[C@@]1(C)C(=O)[C@H](O)C3=C(C)[C@@H](OC(=O)[C@H](O)[C@@H](NC(=O)OC(C)(C)C)c4ccccc4)C[C@@](O)([C@@H](OC(=O)c4ccccc4)[C@H]21)C3(C)C` [Docetaxel] + CC(=O)c1c(C)c2cnc(Nc3ccc(N4CCNCC4)cn3)nc2n(C2CCCC2)c1=O [palbociclib] (first compound 0.0001 µM, partner dose 0.04 µM), 463%.
As for `COc1ccc(C2=N[C@@H](c3ccc(Cl)cc3)[C@@H](c3ccc(Cl)cc3)N2C(=O)N2CCNC(=O)C2)c(OC(C)C)c1` [Nutlin-3] + Nc1nc(F)nc2c1ncn2[C@@H]1O[C@H](CO)[C@@H](O)[C@@H]1O [fludarabine] (first compound 0.1 µM, partner dose 0.2 µM), the figure is 65%.
As for `CCN(CC)CCNC(=O)c1c(C)[nH]c(/C=C2\C(=O)Nc3ccc(F)cc32)c1C` [sunitinib] + C=C(c1ccc(C(=O)O)cc1)c1cc2c(cc1C)C(C)(C)CCC2(C)C [Bexarotene] (first compound 0.4 µM, partner dose 2 µM), the figure is 47.1%.
On to `NC(=O)c1ccc(N(C(N)=O)c2c(F)cccc2F)nc1-c1ccc(F)cc1F` + Cn1nnc2c(C(N)=O)ncn2c1=O [temozolomide] (first compound 0.4 µM, partner dose 2 µM), for which the “cleaved PARP positive nuclei fraction” value came out at 89.7%.
As for `CC1(C)CCC(c2ccc(Cl)cc2)=C(CN2CCN(c3ccc(C(=O)NS(=O)(=O)c4ccc(N[C@H](CCN5CCOCC5)CSc5ccccc5)c(S(=O)(=O)C(F)(F)F)c4)cc3)CC2)C1` + CN(c1ncccc1CNc1nc(Nc2ccc3c(c2)CC(=O)N3)ncc1C(F)(F)F)S(C)(=O)=O [PF562271] (first compound 0.4 µM, partner dose 0.08 µM), the figure is 108%.
For the compound `Cn1sc(=O)n(Cc2ccccc2)c1=O` + CC(C)C[C@H](NC(=O)[C@H](Cc1ccccc1)NC(=O)c1cnccn1)B(O)O [Bortezomib] (first compound 0.4 µM, partner dose 0.001 µM), the “cleaved PARP positive nuclei fraction” value was 29.8%.
As to `C[C@]1(O)C[C@@H](c2nc(-c3ccc4ccc(-c5ccccc5)nc4c3)c3c(N)nccn32)C1` + C=CCn1c(=O)c2cnc(Nc3ccc(N4CCN(C)CC4)cc3)nc2n1-c1cccc(C(C)(C)O)n1 [MK1775] (first compound 0.4 µM, partner dose 0.02 µM), the “cleaved PARP positive nuclei fraction” value came to 155%.
To `CS(=O)(=O)c1ccc(C(=O)Nc2ccc(Cl)c(-c3ccccn3)c2)c(Cl)c1` [vismodegib] + C[C@@H](Oc1cc(-c2cnn(C3CCNCC3)c2)cnc1N)c1c(Cl)ccc(F)c1Cl [Crizotinib] (first compound 1 µM, partner dose 0.2 µM) belongs 67.8%.
